The other results are listed elsewhere or left out. These are further read-outs of the screen, such as a control signal, another cell line or another target. No call is given for them. Most of these compounds were active or inconclusive in the main read-out, so they are no random draw. Potencies come from curve fits of mixed quality, noted in brackets.
Experiment: qHTS Assay for Lipid Storage Modulators in Drosophila S3 Cells;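 as to cell number change: cells counted by Cell Tracker Red CMTPX staining in the red channel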
Conditions: BODIPY lipid droplet fluorescence, 18-24 h; for cell number change: measured here: cell count max response, cells fed with added oleic acid
Outline: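 Laser-scanning cytometry quantifies lipid droplet accumulation (500–530 nm total intensity; droplet/cell object ratio) in oleic acid-fed (400 uM added) Drosophila S3 cells treated with a concentration series. 20 uM Triacsin C defined 100% inhibition.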

[1] = measured here: lipid fluorescence (Fed channel) AC50, cells fed with added oleic acid
[2] = measured here: cell number channel AC50, cells fed with added oleic acid

| Structure (SMILES) | cell number change [%] | AC50 [1] | AC50 [2] |
| --- | --- | --- | --- |
| Cc1cccc(NC(=O)CNCC(=O)Nc2cccc(C)c2C)c1C | 22.1 | 11.6 µM [rising, partial curve, poor fit] | – |
| CCOc1ccc(NC(=O)CN(C)C(=O)C2(c3ccccc3)CC2)cc1OCC | 10.6 | 0.651 µM [rising, full curve, poor fit] | – |
| CCCc1ccc2oc(C(=O)N3CCN(CCC(N)=O)CC3)c(C)c2c1 | 8.29 | 0.461 µM [rising, single point] | – |
| COCCc1nc2ccc(C(=O)N(C)Cc3cccc(-n4cccn4)c3)cc2o1 | 0.85 | 1.84 µM [rising, partial curve] | – |
| CC1(C)CC(CC(=O)Nc2ccccc2[N+](=O)[O-])C(=O)O1 (stereo not given) | 38.9 | 29.1 µM [rising, single point] | 0.00461 µM [rising, full curve, poor fit] |
| Cc1ncc(CO)c2c1OC(C)(C)OC2 | -3.77 | 0.103 µM [falling, full curve, poor fit] | – |
| COc1cccc(Oc2ccc(C(F)(F)F)cc2NC(=O)c2cccc(F)c2)c1 | 38 | – | 20.6 µM [rising, partial curve] |
| COc1ccc(Cl)cc1S(=O)(=O)N(C)CC(=O)N1CCCC1 | 11 | 29.1 µM [rising, single point] | – |
| COCCCn1c(SCc2cccc(C(F)(F)F)c2)nc2cc(OC)c(OC)cc2c1=N | -85.9 | 10.3 µM [falling, partial curve] | 18.4 µM [falling, partial curve] |
| CCc1cc2cccc(C)c2nc1SCC(=O)Nc1nonc1C | 16.9 | – | 0.0259 µM [rising, full curve, poor fit] |
| CCOc1cc(N2CCOCC2)c(OCC)cc1NC(=O)c1ccc(C)cc1 | -24.2 | 5.8 µM [falling, full curve, poor fit] | 1.16 µM [falling, full curve, poor fit] |
| COc1ccc(-c2nnc(NC(=O)c3ccccc3[N+](=O)[O-])s2)c(OC)c1 | 15 | – | – |
| COc1ccccc1NC(=S)NCCc1ccccc1 | -28.1 | – | – |
| O=S(=O)(c1ccc(S(=O)(=O)N2CCN(Cc3ccccc3)CC2)cc1)N1CCOCC1 | -38.6 | 29.1 µM [falling, single point] | 29.1 µM [falling, single point] |
| Cc1ccc(Nc2nc(-c3c(C)nc4ncccn34)cs2)cc1 | 19.3 | 16.4 µM [rising, partial curve] | – |
| COc1ccc(N(CC(=O)NCCc2ccc(OC)c(OC)c2)S(=O)(=O)c2ccc(OC)c(OC)c2)cc1 | 338 | 29.1 µM [falling, partial curve] | 29.1 µM [rising, single point] |
| COc1ccc(CC(=O)N2CCc3ccccc3C2)cc1 | 22.5 | 29.1 µM [rising, single point] | – |
| COc1ccc(CCNC(=O)c2ccc3ccccc3n2)cc1 | 24.8 | 1.16 µM [rising, full curve] | – |
| CN1CCN(NC(=O)CN(C)S(=O)(=O)c2cc(Cl)ccc2Cl)CC1 | -19.3 | 5.17 µM [falling, partial curve] | – |
| COc1ccc(F)cc1S(=O)(=O)Nc1cc2c3c(c1)CCN3C(=O)CC2 | – | 2.59 µM [falling, partial curve, poor fit] | – |

| Structure (SMILES) | cell number change [%] | AC50 [1] | AC50 [2] |
| --- | --- | --- | --- |
| O=C1CC(SCCc2nc3ccccc3[nH]2)C(=O)N1c1ccc(Cl)cc1 (stereo not given) | 132 | – | – |
| CCC(=O)c1ccc(OCC(=O)OCC(=O)NC2CCCCCC2)cc1 | -33.3 | – | 0.0366 µM [falling, full curve] |
| O=C(OCC(=O)N1CCCCCC1)c1cccs1 | -119 | 29.1 µM [falling, single point] | – |
| Cc1cc(=O)n(CC=C(Cl)Cl)c2ccccc12 | – | 6.51 µM [rising, single point] | – |
| O=C(Nc1nccs1)c1ccc[nH]c1=O | 2.64 | – | – |
| CCn1ccnc1CNC(=O)CC1C(=O)NCCN1Cc1ccc(OC)cc1OC (stereo not given) | 5.9 | 20.6 µM [rising, partial curve, poor fit] | – |
| CCOCCCN(C(=O)Cn1nnc(-c2ccc(OC)c(OC)c2)n1)C(C(=O)NCC1CCCO1)c1ccc(F)cc1 (stereo not given) | 19.7 | 22.4 µM [falling, single point] | – |
| CCOc1cc(N2CCOCC2)c(OCC)cc1NC(=O)COc1cccc2cccnc12 | -24.1 | 29.1 µM [falling, single point] | – |
| Cc1c(Cl)cccc1NC(=O)Nc1ccc(C(N)=O)cc1 | 41.7 | 29.1 µM [rising, single point] | 29.1 µM [rising, single point] |
| O/N=C/c1ccnc(SCc2ccc(Cl)cc2)n1 | -47.1 | 14.6 µM [falling, partial curve] | 13 µM [falling, partial curve, poor fit] |
| CCC(Sc1nc2n[nH]c(C)c2c(=N)n1-c1cccc(Cl)c1)C(=O)NCCOC (stereo not given) | -19.1 | 29.1 µM [falling, single point] | – |
| CCOc1ccccc1NC(=O)COC(=O)CSc1ccc(Cl)cc1 | 53.9 | 0.206 µM [rising, full curve, poor fit] | 20.6 µM [rising, single point] |
| Cc1c(Cl)cccc1NC(=S)N(Cc1ccccc1)Cc1cccnc1 | 100 | 6.51 µM [rising, partial curve, poor fit] | 16.4 µM [rising, partial curve, poor fit] |
| COc1ccc2c(Cl)c(C(=O)NN3CCN(C)CC3)sc2c1 | -23.1 | 0.164 µM [falling, full curve, poor fit] | 0.164 µM [falling, full curve, poor fit] |
| CCOC(=O)c1cnc2cc(Cl)c(OC)cc2c1NCC1CCCO1 (stereo not given) | -14.4 | 4.61 µM [falling, full curve] | – |
| O=C(Nc1cccc([N+](=O)[O-])c1)N1CCCCCC1 | 3.18 | 0.651 µM [rising, single point] | – |
| Cc1cccc(NC(=O)CCN2C(=O)C3C4C=CC(C4)C3C2=O)c1 (stereo not given) | 17.3 | 29.1 µM [falling, single point] | – |
| Cc1c(Cl)ccc2c(C(=O)NCCN3CCCCC3)cc(-c3ccccn3)nc12 | 5.23 | – | – |
| CCOC(=O)N1CCN(C(=O)C2CCC(=O)N(Cc3ccc(Cl)cc3)C2)CC1 (stereo not given) | 10.5 | 29.1 µM [rising, single point] | – |
| Cc1cccc(C)c1OCCN1CCCC1 | 4.42 | – | – |

| Structure (SMILES) | cell number change [%] | AC50 [1] | AC50 [2] |
| --- | --- | --- | --- |
| COc1cccc(-n2nnc3c(=O)n(CC(=O)N4CCCCC4)cnc32)c1 | 13.2 | 2.06 µM [rising, single point] | – |
| O=C1C2C3C=CC(C3)C2C(=O)N1/N=C/c1ccc(-c2ccccc2[N+](=O)[O-])o1 (stereo not given) | – | – | 0.58 µM [rising, single point] |
| COc1ccc2c(c1OC)C(=O)OC2CC(=O)c1ccc(O)cc1 (stereo not given) | – | 0.0058 µM [rising, full curve, poor fit] | – |
| CC(=O)c1cc(-c2ccccc2)n(CC(=O)NC2CCCCC2)c1C | 4.21 | 6.51 µM [rising, single point] | – |
| N#CC(c1ccc(Cl)cc1)(c1ncc(C(F)(F)F)cc1Cl)N1CCOCC1 (stereo not given) | 30.7 | 23.1 µM [rising, single point] | – |
| CCCCN(CC)C(=O)c1n[nH]c(=O)c2ccccc12 | – | 0.0651 µM [falling, full curve] | – |
| CCCCCC(=O)Nc1ccc(C(=O)COC(=O)CN2C(=O)NC3(CCCC3)C2=O)cc1 | -10.3 | 6.51 µM [falling, single point] | – |
| CC1=C(C(=O)N(C)C)C(c2ccc(C)s2)NC(=S)N1 (stereo not given) | 4.98 | 3.26 µM [rising, partial curve, poor fit] | – |
| COc1cc2c(cc1NC(=O)CSc1nnc(COc3ccc(Cl)cc3)n1C)oc1ccccc12 | -4.9 | 0.0517 µM [rising, full curve, poor fit] | – |
| CS(=O)(=O)N(Cc1ccccc1)c1ccccc1C(=O)Nc1ccccc1C(=O)NCc1ccco1 | 120 | – | 29.1 µM [rising, single point] |
| Cc1ccc(-c2nc3ccccc3nc2-c2ccccc2)cc1 | -16 | – | – |
| CCN(CC)CCn1c(=S)[nH]c2cc3c(cc2c1=O)OCO3 | -11.2 | 6.51 µM [falling, single point] | 0.651 µM [falling, full curve, poor fit] |
| Cc1nc2c(c(=O)n1Cc1ccccc1Cl)c1nc3ccccc3nc1n2Cc1ccco1 | -24.4 | – | – |
| COC(=O)[C@@H]1C[C@@]2(O)[C@@H](O)[C@@H](O)[C@@H](O)C[C@H]2N1Cc1ccc(C(F)(F)F)cc1 | -8.41 | 6.51 µM [falling, single point] | – |
| CC(C)c1ccc(NC(=O)c2cc(S(=O)(=O)NCC3COc4ccccc4O3)ccc2F)cc1 (stereo not given) | 19.5 | – | – |
| CCOc1ccccc1N(CC)C(=O)c1nn(C)c2c1CSc1ccccc1-2 | -7.46 | – | – |
| OC(CCN1CCCC1)(c1ccccc1)C1CCCCC1 (stereo not given) | 21.5 | 0.00517 µM [rising, full curve, poor fit] | – |
| Nc1nnc(-c2cn(-c3ccccc3)nc2-c2ccc(Cl)cc2)o1 | -22 | 16.4 µM [falling, single point] | – |
| CCCNC(=O)Nc1ccc(F)c(Cl)c1 | -92 | – | – |
| O=C(CSc1n[nH]c(-c2ccccc2Br)n1)NC(=O)NCc1ccco1 | 8.93 | 0.291 µM [falling, full curve] | – |

Single entries from the results shown.
In cell number change [%], `O=C(CSc1n[nH]c(-c2ccccc2Br)n1)NC(=O)NCc1ccco1` has the entry 8.93
In cell number change [%], `COc1cccc(Oc2ccc(C(F)(F)F)cc2NC(=O)c2cccc(F)c2)c1` has the entry 38
In AC50 [1], `O/N=C/c1ccnc(SCc2ccc(Cl)cc2)n1` has the entry 14.6 µM [falling, partial curve]

From PubChem BioAssay AID2685 (National Center for Advancing Translational Sciences (NCATS), 2010)
